Measurements from PMC7302878.
No constants are given. Whether binding was seen depends on the method and setting. In cells and extracts the contact can be indirect. A yes stands for co-enrichment or nearness to the bait. Other partners may have been found. For part of these data: A no says only that the protein was not detected with the bait.

The chains behind the UniProt entries cited, without tags or fusion partners. Where a name states a change or a piece, a line headed by the entry shows the natural chain unless it says otherwise.
UniProt Q9SXZ2: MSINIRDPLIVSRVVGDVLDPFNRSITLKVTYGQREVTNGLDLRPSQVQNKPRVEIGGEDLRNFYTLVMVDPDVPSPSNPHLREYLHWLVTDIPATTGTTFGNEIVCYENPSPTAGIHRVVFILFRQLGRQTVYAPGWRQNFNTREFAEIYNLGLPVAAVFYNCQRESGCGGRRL
UniProt P25963: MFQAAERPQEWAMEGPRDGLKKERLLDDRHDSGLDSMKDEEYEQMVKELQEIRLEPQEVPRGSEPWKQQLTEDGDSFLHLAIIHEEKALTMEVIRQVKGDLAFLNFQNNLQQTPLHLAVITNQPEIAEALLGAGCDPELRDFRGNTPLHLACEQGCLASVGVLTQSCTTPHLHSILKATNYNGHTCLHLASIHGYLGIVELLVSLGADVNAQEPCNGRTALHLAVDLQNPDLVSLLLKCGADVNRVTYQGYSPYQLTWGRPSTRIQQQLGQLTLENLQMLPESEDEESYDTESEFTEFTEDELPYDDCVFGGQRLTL
UniProt Q96SW2: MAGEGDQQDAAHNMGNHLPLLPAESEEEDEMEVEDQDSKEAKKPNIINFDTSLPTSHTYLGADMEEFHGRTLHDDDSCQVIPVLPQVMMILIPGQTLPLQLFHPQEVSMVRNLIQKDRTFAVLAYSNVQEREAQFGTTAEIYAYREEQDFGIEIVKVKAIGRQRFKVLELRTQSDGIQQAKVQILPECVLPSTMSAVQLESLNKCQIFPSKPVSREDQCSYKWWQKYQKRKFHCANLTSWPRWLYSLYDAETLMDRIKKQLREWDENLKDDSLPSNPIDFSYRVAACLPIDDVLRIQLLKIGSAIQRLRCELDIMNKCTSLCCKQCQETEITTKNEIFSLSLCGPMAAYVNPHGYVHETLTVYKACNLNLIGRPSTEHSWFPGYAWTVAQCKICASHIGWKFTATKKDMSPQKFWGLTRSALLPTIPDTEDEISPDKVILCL
UniProt P0ABQ4: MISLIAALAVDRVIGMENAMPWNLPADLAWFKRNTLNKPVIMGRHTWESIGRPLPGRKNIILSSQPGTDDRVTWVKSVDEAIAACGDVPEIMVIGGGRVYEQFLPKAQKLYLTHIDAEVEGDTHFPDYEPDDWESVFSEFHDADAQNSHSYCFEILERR
UniProt Q00987: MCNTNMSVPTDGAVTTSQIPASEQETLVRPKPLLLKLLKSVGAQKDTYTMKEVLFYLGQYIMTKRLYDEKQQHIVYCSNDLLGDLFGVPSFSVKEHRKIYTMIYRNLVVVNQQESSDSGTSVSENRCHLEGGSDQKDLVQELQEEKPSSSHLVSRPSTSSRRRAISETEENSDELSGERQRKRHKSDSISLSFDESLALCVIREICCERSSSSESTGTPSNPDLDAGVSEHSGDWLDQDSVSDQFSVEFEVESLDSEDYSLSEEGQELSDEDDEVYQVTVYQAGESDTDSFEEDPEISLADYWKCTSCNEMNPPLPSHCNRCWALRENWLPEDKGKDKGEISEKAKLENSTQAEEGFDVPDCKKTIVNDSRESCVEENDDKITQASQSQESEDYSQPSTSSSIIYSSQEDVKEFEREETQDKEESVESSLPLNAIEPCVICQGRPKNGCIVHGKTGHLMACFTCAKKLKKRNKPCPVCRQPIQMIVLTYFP
UniProt Q9UJQ4: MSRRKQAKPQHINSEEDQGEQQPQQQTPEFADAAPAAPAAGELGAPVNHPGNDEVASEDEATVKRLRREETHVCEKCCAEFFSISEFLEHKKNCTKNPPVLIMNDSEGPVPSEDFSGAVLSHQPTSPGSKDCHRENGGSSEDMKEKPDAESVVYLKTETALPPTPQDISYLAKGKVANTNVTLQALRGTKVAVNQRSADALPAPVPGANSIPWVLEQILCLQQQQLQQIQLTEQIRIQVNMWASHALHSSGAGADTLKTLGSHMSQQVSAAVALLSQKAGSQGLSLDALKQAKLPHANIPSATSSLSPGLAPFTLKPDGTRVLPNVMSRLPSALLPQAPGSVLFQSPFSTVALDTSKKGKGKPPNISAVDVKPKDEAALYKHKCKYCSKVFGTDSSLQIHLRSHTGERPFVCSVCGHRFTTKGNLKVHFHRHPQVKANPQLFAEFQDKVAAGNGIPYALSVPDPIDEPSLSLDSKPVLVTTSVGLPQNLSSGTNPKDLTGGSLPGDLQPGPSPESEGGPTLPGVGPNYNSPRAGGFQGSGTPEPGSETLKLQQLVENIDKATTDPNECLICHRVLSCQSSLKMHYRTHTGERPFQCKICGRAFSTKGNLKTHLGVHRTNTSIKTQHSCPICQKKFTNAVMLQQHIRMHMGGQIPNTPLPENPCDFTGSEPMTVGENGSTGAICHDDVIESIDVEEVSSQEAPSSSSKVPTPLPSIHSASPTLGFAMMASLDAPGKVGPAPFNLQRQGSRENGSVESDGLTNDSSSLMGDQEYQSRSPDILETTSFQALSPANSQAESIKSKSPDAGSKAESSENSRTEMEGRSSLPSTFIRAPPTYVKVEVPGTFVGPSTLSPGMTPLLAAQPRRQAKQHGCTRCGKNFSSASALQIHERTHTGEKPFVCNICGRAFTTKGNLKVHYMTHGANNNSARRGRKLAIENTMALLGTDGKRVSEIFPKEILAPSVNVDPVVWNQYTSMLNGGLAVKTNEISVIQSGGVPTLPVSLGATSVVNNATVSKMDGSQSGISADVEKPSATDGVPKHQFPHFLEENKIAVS
UniProt P19838: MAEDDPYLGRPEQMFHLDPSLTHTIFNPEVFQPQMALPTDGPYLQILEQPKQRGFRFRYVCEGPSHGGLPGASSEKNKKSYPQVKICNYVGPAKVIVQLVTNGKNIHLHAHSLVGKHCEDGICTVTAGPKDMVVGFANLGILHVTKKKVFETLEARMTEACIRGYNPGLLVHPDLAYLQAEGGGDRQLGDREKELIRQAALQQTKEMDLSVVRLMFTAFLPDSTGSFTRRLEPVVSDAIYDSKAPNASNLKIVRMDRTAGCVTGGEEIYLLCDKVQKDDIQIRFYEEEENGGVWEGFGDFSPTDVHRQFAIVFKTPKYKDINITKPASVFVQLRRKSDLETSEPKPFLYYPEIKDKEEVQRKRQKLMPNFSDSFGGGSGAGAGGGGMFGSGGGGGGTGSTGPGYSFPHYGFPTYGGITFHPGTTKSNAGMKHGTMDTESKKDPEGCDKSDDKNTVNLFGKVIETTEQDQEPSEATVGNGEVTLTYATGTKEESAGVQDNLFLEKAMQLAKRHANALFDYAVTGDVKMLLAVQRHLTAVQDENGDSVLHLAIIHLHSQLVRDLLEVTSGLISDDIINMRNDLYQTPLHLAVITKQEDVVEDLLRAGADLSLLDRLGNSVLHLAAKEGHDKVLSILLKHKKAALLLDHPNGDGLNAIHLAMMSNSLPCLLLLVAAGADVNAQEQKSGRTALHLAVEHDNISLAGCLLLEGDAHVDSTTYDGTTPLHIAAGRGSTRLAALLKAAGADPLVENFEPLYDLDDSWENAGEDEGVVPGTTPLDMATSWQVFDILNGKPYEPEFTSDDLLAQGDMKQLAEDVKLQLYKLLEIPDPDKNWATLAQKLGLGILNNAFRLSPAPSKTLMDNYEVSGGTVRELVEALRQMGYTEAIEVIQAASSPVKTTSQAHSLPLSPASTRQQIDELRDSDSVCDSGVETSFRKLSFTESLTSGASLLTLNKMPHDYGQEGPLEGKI

Tests used:
[1] = molecular target: FT-AGIA-AirID (Arabidopsis) (UniProt Q9SXZ2); experiment: proximity labelling; co-translational: FT-AirID co-synthesised with AGIA-FD or AGIA-DHFR in the wheat cell-free system with 500 nM biotin, 16 hr at 16 °C; immunoblotting
[2] = molecular target: AGIA-AVVA-RG-IκBα (human) (UniProt P25963); experiment: proximity labelling; in vitro: proteins synthesised in the wheat cell-free system mixed and incubated at 26 °C for 1 hr, then biotin (500 nM) at 26 °C for 1-16 hr; biotinylated prey detected by SDS-PAGE and anti-biotin immunoblotting
[3] = molecular target: AGIA-AVVA-RS-IκBα (human) (UniProt P25963); experiment: as above
[4] = molecular target: AGIA-AirID-IκBα (wheat cell-free) (human) (UniProt P25963); experiment: as above
[5] = molecular target: AGIA-TurboID-IκBα (wheat cell-free) (human) (UniProt P25963); experiment: as above
[6] = molecular target: AGIA-BioID-IκBα (human) (UniProt P25963); experiment: as above
[7] = molecular target: AGIA-AirID-CRBN-YW/AA (HEK293T) (human) (UniProt Q96SW2); experiment: proximity labelling; in CRBN-knockout HEK293T cells co-expressing AGIA-AirID-CRBN and myc-IKZF1 or myc-SALL4; pomalidomide and MG132 for 6 hr, 5 µM biotin; immunoblotting
[8] = molecular target: AGIA-AirID-IκBα (HEK293T) (human) (UniProt P25963); experiment: proximity labelling; in HEK293T cells expressing the AirID or TurboID fusion (transient or stable), biotin 0-50 µM for 1-24 hr; RIPA lysis, 1% SDS, streptavidin pull-down, immunoblotting with protein-specific antibodies

Substance: AGIA-DHFR (from UniProt P0ABQ4 1-159)
- binding [1]: no binding

Substance: FLAG-GST-MDM2 (from UniProt Q00987 1-491)
- binding [2]: no binding
- binding [3]: no binding
- binding [4]: no binding
- binding [5]: no binding
- binding [6]: no binding

Substance: myc-SALL4 (from UniProt Q9UJQ4 1-1053)
- binding [7]: no binding

Substance: p50 (from UniProt P19838 1-433)
- binding [8]: binds

Substance: p105 (from UniProt P19838 1-968)
- binding [8]: binds
